According to patent publication US20050037989A1, “Inhibition of gene function by delivery of polynucleotide-based gene expression inhibitors to mammalian cells in vivo” (priority 2001, published 2005):

Columns and labels:
[1] = tested on: HMGCR mRNA in primary hepatocytes; assay: HMGCR mRNA in primary hepatocytes cultured with anti-HMGCR siRNA and/or atorvastatin (qPCR); type: cell-based, C57B6 mice; settings: 10 μm atorvastatin, 24 hours
Protocol: qPCR assays. Quantitative, real-time PCR was performed using the Bio-Rad icycler system and iCycler reagents as recommended by the manufacturer. The primers used to amplify HMGCR sequences were SEQ ID 17 and SEQ ID 31.
Total RNA from these cells was isolated and transcribed into cDNA using an oligo-dT primer and reverse transcriptase. Subsequently, HMGCR levels were assayed using quantitative, real-time PCR.

[2] = tested on: LDL receptor mRNA in primary hepatocytes; assay: LDL receptor mRNA in primary murine hepatocytes treated with atorvastatin and siRNA (qPCR); type: cell-based, C57BL6 mice; settings: 24 hours
Protocol: Transfection and atorvastatin treatment of hepatocytes. […] Then 100 μl of the siRNA transfection cocktail was added to each well. Hepatocyte maintenance media was a 1:1 mixture of DMEM-F12/0.1% BSA/0.1% galactose. siRNA transfection cocktail. Each 100 μl aliquot of siRNA transfection cocktail contained 3.8 μl TransIT-TKO, 275 nM siRNA, and the remaining volume of OPTI-MEM transfection media. The 100 μl aliquots were added to cells in 1 ml of media such that the final siRNA concentration was 25 nM. RNA isolation. After 24 hours of siRNA transfection and atorvastatin treatment, cells were harvested in Tri-Reagent. […] qPCR assays. Quantitative, real-time PCR was performed using the Bio-Rad iCycler system and iCycler reagents as recommended by the manufacturer. The primers used to amplify LDLR sequences were [NT] ID 19) and [NT] ID 22). Primary hepatocytes were isolated from C57BL6 mice and plated on collagen-coated 12-well plates. After allowing them to adhere to the plates for 24 hours, one of two different procedures was followed. In the first, cells were treated with 200 nM atorvastatin in DMSO or DMSO alone for 24 hours. In the second, cells were covered with 1 ml of hepatocyte maintenance media. […]

In the case of `CC(C)c1c(C(=O)Nc2ccccc2)c(-c2ccccc2)c(-c2ccc(F)cc2)n1CC[C@@H](O)C[C@@H](O)CC(=O)O` [atorvastatin, reference compound], the “HMGCR mRNA levels induced relative to vehicle-treated cells” value [1] is reported as 400%, the “LDLR mRNA levels over a range of atorvastatin concentrations (in words)” value ([2]; 0-200 nM atorvastatin with 25 nM HMGCR or GL3 siRNA, FIG. 8B) is reported as “dose-dependent increase in LDLR mRNA levels” and the “LDL receptor mRNA levels (in words)” value ([2]; 200 nM atorvastatin, FIG. 8A) is reported as “marked increase in LDL receptor mRNA levels”.
